# From PubChem BioAssay AID1671190 (National Center for Advancing Translational Sciences (NCATS), 2021)
# Chains of the proteins cited; added tags and fusions are not shown. Lines headed by an entry give the natural chain unless they say otherwise; changes in a name come on top.
# UniProt P18054: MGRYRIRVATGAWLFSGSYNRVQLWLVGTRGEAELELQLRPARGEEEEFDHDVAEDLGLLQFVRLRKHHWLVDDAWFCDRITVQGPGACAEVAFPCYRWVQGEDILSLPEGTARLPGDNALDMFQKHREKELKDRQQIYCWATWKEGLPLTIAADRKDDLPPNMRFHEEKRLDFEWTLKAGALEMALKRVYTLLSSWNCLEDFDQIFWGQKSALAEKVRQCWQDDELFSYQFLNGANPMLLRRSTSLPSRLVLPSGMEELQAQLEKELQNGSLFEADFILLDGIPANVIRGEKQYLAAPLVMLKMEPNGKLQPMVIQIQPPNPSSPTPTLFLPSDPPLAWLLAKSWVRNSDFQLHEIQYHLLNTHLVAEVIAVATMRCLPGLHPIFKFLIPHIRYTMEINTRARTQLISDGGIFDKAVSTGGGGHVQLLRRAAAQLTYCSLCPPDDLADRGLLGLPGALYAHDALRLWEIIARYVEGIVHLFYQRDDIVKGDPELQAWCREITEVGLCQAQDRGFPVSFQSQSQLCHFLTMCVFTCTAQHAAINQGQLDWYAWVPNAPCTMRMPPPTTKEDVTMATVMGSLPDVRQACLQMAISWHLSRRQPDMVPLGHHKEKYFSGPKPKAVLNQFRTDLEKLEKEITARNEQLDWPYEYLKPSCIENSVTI
# The whole screen tested about 580,000 compounds, of which about 6,100 (1.1%) were called active. The shares of active, inactive and inconclusive entries below differ from those in the screen. Calls come from the whole dose curve; as a rule, active = well fitted inhibition curve with a large enough effect; inconclusive = small, poorly fitted or top-dose-only effect, or another doubt; inactive = no such curve, though single readings can be large or run the other way. Potencies of inconclusive entries are doubtful fits and often do not repeat.
# Molecular target: Polyunsaturated fatty acid lipoxygenase ALOX12 (Homo sapiens) (UniProt P18054)
# Assay: Primary qHTS assay for inhibitors of human arachidonate 12S-lipoxygenase (ALOX12): Round 2
# Conditions: purified 12hLO, xylenol orange hydroperoxide absorbance; activity change, negative = inhibition: at 108 µM (top of the series) unless noted
# Procedure, shortened: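 Purified human 12hLO at 150 nM in 25 mM Hepes, 0.01% Triton X-100, pH 7.0, preincubated 15 min at room temperature with compound. Reaction started with 40 uM arachidonic acid, 30 min at room temperature. Hydroperoxide measured by Fe-xylenol orange, 573/405 nm absorbance ratio.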
# % is set by controls: 0 for no effect and ±100 for the full control effect; potency is the fitted concentration of half-maximal effect.
SMILES,Potency,"activity change, negative = inhibition"
COc1ccc(NC(=O)/C(C#N)=C/c2c(C)nn(-c3ccc(F)cc3)c2Cl)cc1OC,"inconclusive: 126 µM [inhibitor, partial curve, poor fit]",
Cc1ccc2c(c1)nc1n2[C@@H](CNC2CCOCC2)COC1,"inconclusive: 35.5 µM [inhibitor, partial curve, poor fit]",
COc1ccc(Cl)cc1NC(=O)CSc1nc2sccc2c(=O)[nH]1,,inactive: -15.8%
C=CCn1c(CC(=O)Nc2ccc(C)cc2C)nnc1SCC(=O)N1CCOCC1,"inconclusive: 141 µM [inhibitor, single point]",
O=C(/C=C/c1ccco1)Nc1cc(Cl)ccc1C(=O)O,"inconclusive: 44.7 µM [inhibitor, partial curve, poor fit]",
O=C(O)CNC(=O)CNC(=O)Cn1nc2c(cc1=O)CCCC2,,inactive: 14.6%
Cc1nc2nc(C)c(CCC(=O)NC(C)c3ccc4c(c3)OCCO4)c(C)n2n1 (stereo not drawn),"inconclusive: 25.1 µM [inhibitor, single point]",
CCN(C(=O)CSc1nnc(-c2ccc(Cl)cc2)o1)c1ccccc1,,inactive: -13.8%
O=C(NCc1cccs1)c1cc(-c2cccnc2)nc2ccc(Cl)cc12,"inconclusive: 1 µM [inhibitor, full curve, poor fit]",
Cc1ccc(S(=O)(=O)N(C)C2(C)CCS(=O)(=O)C2)cc1 (stereo not drawn),"inconclusive: 8.91 µM [inhibitor, partial curve, poor fit]",
COc1cccc(N2CCN(c3nc(C(=O)NCc4ccncc4)cs3)CC2)c1,,inactive: 49.1%
C#CCNC(=O)CN(Cc1cccs1)C1CC1,,inactive: -10.3%
S=C(NCCC(c1ccccc1)c1ccccc1)Nc1ccc(Cl)cc1,"inconclusive: 31.6 µM [inhibitor, partial curve, poor fit]",
COc1ccc2c(c1)c(C(=O)CN1CCN(C(=O)c3ccco3)CC1)c(C)n2C,"inconclusive: 50.1 µM [inhibitor, partial curve, poor fit]",
Cc1cccc(NC(=O)CN2C(=O)NC(Cc3ccccc3)C2=O)c1 (stereo not drawn),"inconclusive: 89.1 µM [inhibitor, partial curve, poor fit]",
CCc1ccc([C@H]2[C@@H]3C(=O)C[C@@H]4C(=O)N(Cc5ccccc5)C(=O)[C@@H]4[C@@H]3CN2S(=O)(=O)c2ccc(C)cc2)cc1,"inconclusive: 112 µM [inhibitor, single point]",
COc1ccccc1CNC(=O)COc1ncnc2ccccc12,"inconclusive: 89.1 µM [inhibitor, single point]",
CCOC(=O)c1cnc(-n2nc(C)cc2C)nc1NCCc1ccccc1,active: 44.7 µM,

# 2 compounds drawn at random from the list so far, as already listed:
SMILES,Potency,"activity change, negative = inhibition"
CCN(C(=O)CSc1nnc(-c2ccc(Cl)cc2)o1)c1ccccc1,,inactive: -13.8%
COc1ccc(NC(=O)/C(C#N)=C/c2c(C)nn(-c3ccc(F)cc3)c2Cl)cc1OC,"inconclusive: 126 µM [inhibitor, partial curve, poor fit]",
